Experimental data: doi:10.1101/643494
These are yes or no findings as the source states them, for the method shown. For some of these results: In cells and extracts the contact can be indirect. Some binding calls cover weakened binding; strength is not graded here. For some of these results: Sequences can lack the tags named with a protein.

The chains behind the UniProt entries cited, without tags or fusion partners.
UniProt O64399: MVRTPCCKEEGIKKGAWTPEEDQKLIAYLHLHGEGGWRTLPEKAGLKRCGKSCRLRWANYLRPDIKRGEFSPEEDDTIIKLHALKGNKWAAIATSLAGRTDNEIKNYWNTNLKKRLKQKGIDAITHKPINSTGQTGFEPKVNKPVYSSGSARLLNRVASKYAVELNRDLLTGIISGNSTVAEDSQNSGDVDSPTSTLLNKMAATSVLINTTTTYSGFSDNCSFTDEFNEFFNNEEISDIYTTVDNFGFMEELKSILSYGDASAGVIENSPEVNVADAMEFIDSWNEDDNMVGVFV
UniProt Q58G47: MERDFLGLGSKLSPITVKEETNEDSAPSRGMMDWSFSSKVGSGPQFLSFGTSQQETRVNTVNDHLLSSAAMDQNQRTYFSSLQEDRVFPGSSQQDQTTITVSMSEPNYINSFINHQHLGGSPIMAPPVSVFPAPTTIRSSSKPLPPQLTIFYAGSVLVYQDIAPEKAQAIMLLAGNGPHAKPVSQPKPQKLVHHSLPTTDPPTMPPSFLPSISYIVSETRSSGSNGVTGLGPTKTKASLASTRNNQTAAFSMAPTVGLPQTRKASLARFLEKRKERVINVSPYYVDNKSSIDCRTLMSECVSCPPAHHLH
UniProt Q9SZ06: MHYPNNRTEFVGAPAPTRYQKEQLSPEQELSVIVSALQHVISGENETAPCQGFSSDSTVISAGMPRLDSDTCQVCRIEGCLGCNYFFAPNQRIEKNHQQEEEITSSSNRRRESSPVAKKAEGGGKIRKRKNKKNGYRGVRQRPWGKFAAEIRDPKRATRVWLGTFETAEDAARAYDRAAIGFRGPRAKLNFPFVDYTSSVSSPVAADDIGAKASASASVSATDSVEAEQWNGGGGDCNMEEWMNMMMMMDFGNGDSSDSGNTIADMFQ
UniProt Q9FIP9: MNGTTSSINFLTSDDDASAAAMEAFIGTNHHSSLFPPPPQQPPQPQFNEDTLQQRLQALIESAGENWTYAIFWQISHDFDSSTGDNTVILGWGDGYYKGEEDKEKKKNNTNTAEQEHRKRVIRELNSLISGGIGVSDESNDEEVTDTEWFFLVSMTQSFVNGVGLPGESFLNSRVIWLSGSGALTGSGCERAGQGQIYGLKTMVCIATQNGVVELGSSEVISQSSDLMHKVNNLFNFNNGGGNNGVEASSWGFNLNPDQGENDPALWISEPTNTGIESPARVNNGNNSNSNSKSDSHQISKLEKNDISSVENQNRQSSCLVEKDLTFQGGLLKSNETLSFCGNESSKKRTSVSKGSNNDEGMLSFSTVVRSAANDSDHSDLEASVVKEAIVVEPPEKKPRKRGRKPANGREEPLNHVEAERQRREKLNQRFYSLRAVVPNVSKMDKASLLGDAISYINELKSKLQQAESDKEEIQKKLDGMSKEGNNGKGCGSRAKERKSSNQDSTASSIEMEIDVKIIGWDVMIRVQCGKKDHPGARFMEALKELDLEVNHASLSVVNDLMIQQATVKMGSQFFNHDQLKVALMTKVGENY
UniProt O49687: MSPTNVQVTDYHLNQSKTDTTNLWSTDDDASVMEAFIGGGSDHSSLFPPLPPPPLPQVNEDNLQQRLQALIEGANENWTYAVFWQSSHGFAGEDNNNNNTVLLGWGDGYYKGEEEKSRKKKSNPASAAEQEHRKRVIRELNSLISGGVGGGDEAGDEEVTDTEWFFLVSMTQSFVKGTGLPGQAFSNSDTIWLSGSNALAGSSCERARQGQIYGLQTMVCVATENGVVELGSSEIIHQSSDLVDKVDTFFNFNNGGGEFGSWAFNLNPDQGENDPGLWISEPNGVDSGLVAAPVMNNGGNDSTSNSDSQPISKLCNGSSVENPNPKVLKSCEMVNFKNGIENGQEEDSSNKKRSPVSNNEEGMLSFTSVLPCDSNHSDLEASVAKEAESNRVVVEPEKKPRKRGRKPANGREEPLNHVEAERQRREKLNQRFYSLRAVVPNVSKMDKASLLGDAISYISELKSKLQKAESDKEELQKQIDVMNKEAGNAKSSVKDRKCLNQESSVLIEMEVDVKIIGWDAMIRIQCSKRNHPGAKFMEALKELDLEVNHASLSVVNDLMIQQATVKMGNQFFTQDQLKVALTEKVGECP

Assays:
[1] = target: MYB34 fused to the GAL4 BD (Arabidopsis thaliana) (UniProt O64399); experiment: two-hybrid
[2] = target: T1, MYB51 fused to the GAL4 BD (Arabidopsis thaliana) (UniProt O49782); experiment: two-hybrid
T1 sequence: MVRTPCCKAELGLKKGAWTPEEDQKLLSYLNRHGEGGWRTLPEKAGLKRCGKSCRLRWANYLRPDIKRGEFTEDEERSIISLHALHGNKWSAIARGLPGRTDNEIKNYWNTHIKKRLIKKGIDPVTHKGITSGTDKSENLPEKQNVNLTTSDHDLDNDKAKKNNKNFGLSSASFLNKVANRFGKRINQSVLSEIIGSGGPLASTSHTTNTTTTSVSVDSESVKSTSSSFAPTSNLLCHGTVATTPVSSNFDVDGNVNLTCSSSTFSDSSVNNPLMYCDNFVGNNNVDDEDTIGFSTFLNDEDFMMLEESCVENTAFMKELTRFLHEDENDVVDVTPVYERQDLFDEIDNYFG

[3] = target: MYB51NT (yeast two-hybrid fusion) (Arabidopsis thaliana) (UniProt O49782); experiment: two-hybrid
[4] = target: T2, Strep-MYB51 (Arabidopsis thaliana) (UniProt O49782); experiment: pull-down
T2 sequence: T1 sequence

[5] = target: T3, JAZ10 fused to the GAL4 BD (Arabidopsis thaliana) (UniProt Q93ZM9); experiment: two-hybrid
T3 sequence: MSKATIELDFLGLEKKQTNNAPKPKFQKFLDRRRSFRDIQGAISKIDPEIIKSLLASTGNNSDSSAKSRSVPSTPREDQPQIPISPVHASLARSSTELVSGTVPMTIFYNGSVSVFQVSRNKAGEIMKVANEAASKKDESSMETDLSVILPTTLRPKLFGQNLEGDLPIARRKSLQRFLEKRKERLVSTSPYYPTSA

[6] = target: T4, JAZ11 fused to the GAL4 BD (Arabidopsis thaliana) (UniProt Q9M246); experiment: two-hybrid
T4 sequence: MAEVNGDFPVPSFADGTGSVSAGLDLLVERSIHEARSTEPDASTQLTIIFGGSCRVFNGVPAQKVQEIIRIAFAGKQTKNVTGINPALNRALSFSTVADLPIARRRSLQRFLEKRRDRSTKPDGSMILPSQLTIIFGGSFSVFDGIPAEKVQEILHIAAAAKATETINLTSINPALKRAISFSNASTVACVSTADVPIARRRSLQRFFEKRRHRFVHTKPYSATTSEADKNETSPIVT

[7] = target: T5, JAZ3 fused to the GAL4 BD (Arabidopsis thaliana) (UniProt Q9LVI4); experiment: two-hybrid
T5 sequence: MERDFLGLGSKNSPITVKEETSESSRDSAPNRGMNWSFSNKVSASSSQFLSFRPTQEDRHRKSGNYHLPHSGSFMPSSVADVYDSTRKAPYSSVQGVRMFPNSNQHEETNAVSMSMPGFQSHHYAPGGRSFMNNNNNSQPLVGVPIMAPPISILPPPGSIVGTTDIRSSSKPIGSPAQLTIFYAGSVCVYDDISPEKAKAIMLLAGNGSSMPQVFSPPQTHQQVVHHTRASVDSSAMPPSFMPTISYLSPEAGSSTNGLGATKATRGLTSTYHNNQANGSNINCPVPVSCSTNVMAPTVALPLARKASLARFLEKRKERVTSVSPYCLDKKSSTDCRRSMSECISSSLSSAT

[8] = target: JAZ4 fused to the GAL4 BD (Arabidopsis thaliana) (UniProt Q58G47); experiment: two-hybrid
[9] = target: T6, JAZ7 fused to the GAL4 BD (Arabidopsis thaliana) (UniProt O64687); experiment: two-hybrid
T6 sequence: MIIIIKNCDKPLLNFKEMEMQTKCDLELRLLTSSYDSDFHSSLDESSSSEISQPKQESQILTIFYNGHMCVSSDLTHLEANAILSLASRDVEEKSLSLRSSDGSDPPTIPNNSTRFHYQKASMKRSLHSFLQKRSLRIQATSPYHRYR

[10] = target: T7, JAZ8 fused to the GAL4 BD (Arabidopsis thaliana) (UniProt Q8LBM2); experiment: two-hybrid
T7 sequence: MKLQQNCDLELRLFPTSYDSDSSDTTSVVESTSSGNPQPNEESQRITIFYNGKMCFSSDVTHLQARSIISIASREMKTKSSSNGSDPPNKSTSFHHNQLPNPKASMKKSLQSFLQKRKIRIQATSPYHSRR

[11] = target: T8, JAZ9 fused to the GAL4 BD (Arabidopsis thaliana) (UniProt Q8W4J8); experiment: two-hybrid
T8 sequence: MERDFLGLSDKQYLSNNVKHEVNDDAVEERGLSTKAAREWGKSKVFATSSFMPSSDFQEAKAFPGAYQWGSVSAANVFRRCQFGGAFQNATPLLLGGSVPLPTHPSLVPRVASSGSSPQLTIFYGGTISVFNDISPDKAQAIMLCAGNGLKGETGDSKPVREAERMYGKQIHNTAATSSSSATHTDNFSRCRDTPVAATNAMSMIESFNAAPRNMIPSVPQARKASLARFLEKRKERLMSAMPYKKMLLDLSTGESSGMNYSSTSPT

[12] = target: T9, nYFP-JAZ10 (Arabidopsis thaliana) (UniProt Q93ZM9); experiment: split reporter
T9 sequence: T3 sequence

[13] = target: T10, unfused MYB51 (yeast three-hybrid bridge) (Arabidopsis thaliana) (UniProt O49782); experiment: two-hybrid
T10 sequence: T1 sequence

[14] = target: T11, MYB51-cYFP (Arabidopsis thaliana) (UniProt O49782); experiment: split reporter
T11 sequence: T1 sequence

[15] = target: T12, JAZ10-cYFP (Arabidopsis thaliana) (UniProt Q93ZM9); experiment: split reporter
T12 sequence: T3 sequence

Substance: ERF109 fused to the GAL4 AD (from UniProt Q9SZ06 1-268)
- binding [1]: no binding
- binding [2]: binds
- binding [3]: no binding

Substance: HA-ERF109 (from UniProt Q9SZ06 1-268)
- binding [4]: binds

Substance: HA-MYC3 (from UniProt Q9FIP9 1-592)
- binding [4]: binds

Substance: MYB34 fused to the GAL4 AD (from UniProt O64399 1-295)
- binding [5]: no binding
- binding [6]: no binding
- binding [7]: no binding
- binding [8]: no binding
- binding [9]: no binding
- binding [10]: no binding
- binding [11]: no binding

Substance: MYB51 NT-cYFP (from UniProt O49782 1-117) (domain or fragment)
- binding [12]: binds

Substance: MYC3 fused to the GAL4 AD (from UniProt Q9FIP9 1-592)
- binding [5]: binds
- binding [6]: binds
- binding [9]: no binding
- binding [10]: binds
- binding [11]: binds
- binding [2]: binds
- binding [13]: binds

Substance: MYC4 fused to the GAL4 AD (from UniProt O49687 1-589)
- binding [2]: binds
- binding [13]: binds

Substance: nYFP-ERF109 (from UniProt Q9SZ06 1-268)
- binding [14]: binds

Substance: nYFP-MYC3 (from UniProt Q9FIP9 1-592)
- binding [15]: binds
- binding [14]: binds
